Some entries share one result that the patent states for a list of compounds.
How the values were obtained:
Type in all cases: in vivo
[1] = test system: Mediterranean fruitfly (Ceratitis capitata); assay: Mediterranean fruitfly insect diet microtiter test (B.9); settings: test concentration 800 ppm; egg and larval mortality on insect diet; 5 days
Experimental: B. 9 Mediterranean fruitfly (Ceratitis capitata)
(§1) For evaluating control of Mediterranean fruitfly (Ceratitis capitata) the test unit consisted of microtiter plates containing an insect diet and 50-80 C. capitata eggs. The compounds were formulated using a solution containing 75% v/v water and 25% v/v DMSO. Different concentrations of formulated compounds were sprayed onto the insect diet at 5 μl, using a custom built micro atomizer, at two replications. After application, microtiter plates were incubated at about 28±1° C. and about 80±5% relative humidity for 5 days. Egg and larval mortality was then visually assessed.

[2] = test system: Tobacco budworm (Heliothis virescens); assay: Tobacco budworm insect diet microtiter test (B.10); settings: test concentration 800 ppm; egg and larval mortality on insect diet; 5 days
Experimental: B.10 Tobacco budworm (Heliothis virescens)
as §1, with “of tobacco budworm (Heliothis virescens)” for “of Mediterranean fruitfly (Ceratitis capitata)”, “unit consists” for “unit consisted”, “of 96-well-microtiter” for “of microtiter”, “and 15-25 H. virescens” for “and 50-80 C. capitata”, “at 10” for “at 5”

[3] = test system: Boll weevil (Anthonomus grandis); assay: Boll weevil insect diet microtiter test (B.8); settings: test concentration 800 ppm; egg and larval mortality on insect diet; 5 days
[4] = test system: Southern Armyworm (Spodoptera eridania, 2nd instar larvae); assay: Southern Armyworm foliar spray test on lima bean plants (B.1); settings: 300 ppm, assessed 4 days after treatment
Experimental: B.1 Southern Armyworm (Spodoptera eridania, 2nd instar larvae)
The active compounds were formulated in cyclohexanone as a 10,0000 ppm solution supplied in 1.3 ml ABgene® tubes. These tubes were inserted into an automated electrostatic sprayer equipped with an atomizing nozzle and they served as stock solutions for which lower dilutions were made in 50% acetone: 50% water (v/v). A nonionic surfactant (Kinetic®) was included in the solution at a volume of 0.01% (v/v). Lima bean plants (variety Sieva) were grown 2 plants to a pot and selected for treatment at the 1st true leaf stage. Test solutions were sprayed onto the foliage by an automated electrostatic plant sprayer equipped with an atomizing spray nozzle. The plants were dried in the sprayer fume hood and then removed from the sprayer. Each pot was placed into perforated plastic bags with a zip closure. Ten to 11 armyworm larvae were placed into the bag and the bags zipped closed. Test plants were maintained in a growth room at 25° C. and 20-40% relative humidity for 4 days, avoiding direct exposure to fluorescent light (24 hour photoperiod) to prevent trapping of heat inside the bags. Mortality and reduced feeding were assessed 4 days after treatment, compared to untreated control plants.

[5] = test system: Diamondback moth (Plutella xylostella); assay: Diamondback moth leaf-dip test on Chinese cabbage (B.4); settings: test concentration 500 ppm; dipped Chinese cabbage leaves; mortality recorded 24, 72 and 120 hours after treatment
Experimental: B.4 Diamondback moth (Plutella xylostella)
The active compound was dissolved at the desired concentration in a mixture of 1:1 (vol:vol) distilled water:acetone. The test solution was prepared at the day of use.
The activity against Plutella xylostella can be tested by the following experiments:
Leaves of Chinese cabbage were dipped in test solution and air-dried. Treated leaves were placed in petri dished lined with moist filter paper. Mortality was recorded 24, 72, and 120 hours after treatment.

Row | SMILES | mortality [1] | mortality [2] | mortality in comparison with untreated controls [4] | further results
1 | CC(C)(C)SCCNc1nc(-c2ccc(Cl)cc2)nc2cc(C(F)(F)F)ccc12 [I-12] | at least 50% | at least 50% |  | 
2 | CC(CN(C)C)Nc1nc(-c2ccc(Cl)cc2)nc2cc(C(F)(F)F)ccc12 (stereo not shown) [I-14] | at least 50% |  |  | 
3 | CS(=O)(=O)CCNc1nc(-c2ccc(Cl)cc2)nc2cc(C(F)(F)F)ccc12 [I-19] | at least 50% | at least 50% |  | 
4 | CC(CNc1nc(-c2ccc(Cl)cc2)nc2cc(C(F)(F)F)ccc12)C(C)OC(C)(C)C (stereo not shown) [I-24] |  |  |  | mortality [3]: at least 50%
5 | CC(CNc1nc(-c2ccc(Cl)cc2)nc2cc(C(F)(F)F)ccc12)OCC(C)(C)C (stereo not shown) [I-25] |  |  |  | mortality [3]: at least 50%
6 | CC(C)(C)CNc1nc(-c2ccc(Cl)cc2)nc2cc(C(F)(F)F)ccc12 [I-31] |  |  | at least 50% | mortality [3]: at least 50%
7 | CC(C)(C)OC(=O)NCCCCNc1nc(-c2ccc(Cl)cc2)nc2cc(C(F)(F)F)ccc12 [I-39] |  | at least 50% |  | 
8 | CCCN(CC(=O)NC)c1nc(-c2ccc(Cl)cc2)nc2cc(C(F)(F)F)ccc12 [I-45] | at least 50% |  |  | 
9 | Nc1nc(-c2ccc(Cl)cc2)nc2cc(C(F)(F)F)ccc12 [I-76] |  | at least 50% |  | mortality in comparison with untreated controls [5]: at least 50%
10 | FC(F)(F)c1ccc2c(NC3CCOC3)nc(-c3ccc(Cl)cc3)nc2c1 (stereo not shown) [I-81] | at least 50% |  |  | 
11 | CC(C)(C)C(=O)CNc1nc(-c2ccc(Cl)cc2)nc2cc(C(F)(F)F)ccc12 [I-92] |  |  |  | mortality [3]: at least 50%
12 | CONC(=O)CNc1nc(-c2ccc(Cl)cc2)nc2cc(C(F)(F)F)ccc12 [I-98] | at least 50% |  |  | 
13 | CCN(CC)CCNc1nc(-c2ccc(Cl)cc2)nc2cc(C(F)(F)F)ccc12 [I-107] | at least 50% |  |  | 
14 | CCC(C)(C#N)Nc1nc(-c2ccc(Cl)cc2)nc2cc(C(F)(F)F)ccc12 (stereo not shown) [I-108] |  |  |  | mortality [3]: at least 50%
15 | FC(F)(F)c1ccc2c(NCC3CCCCC3)nc(-c3ccc(Cl)cc3)nc2c1 [I-113] |  |  |  | mortality [3]: at least 50%
16 | CC(C)(C)OC(=O)CNc1nc(-c2ccc(Cl)cc2)nc2cc(C(F)(F)F)ccc12 [I-115] | at least 50% | at least 50% |  | 
17 | CC(C)(C)OC(=O)NCCCNc1nc(-c2ccc(Cl)cc2)nc2cc(C(F)(F)F)ccc12 [I-126] |  | at least 50% |  | 
18 | CC(CN1CCOCC1)Nc1nc(-c2ccc(Cl)cc2)nc2cc(C(F)(F)F)ccc12 (stereo not shown) [I-130] |  | at least 50% | at least 50% | 
19 | FC(F)(F)c1ccc2c(NCC3CC4CCC3C4)nc(-c3ccc(Cl)cc3)nc2c1 (stereo not shown) [I-155] | at least 50% |  | at least 50% | 
20 | CC1(Nc2nc(-c3ccc(Cl)cc3)nc3cc(C(F)(F)F)ccc23)CCCS1(=O)=O (stereo not shown) [I-158] |  | at least 50% |  | 
21 | CCC(Nc1nc(-c2ccc(Cl)cc2)nc2cc(C(F)(F)F)ccc12)c1ccccc1 (stereo not shown) [I-161] |  | at least 50% | at least 50% | 
22 | CC(C)OCCNc1nc(-c2ccc(Cl)cc2)nc2cc(C(F)(F)F)ccc12 [I-168] |  | at least 50% | at least 50% | 
23 | CCCC(C)(C)Nc1nc(-c2ccc(Cl)cc2)nc2cc(C(F)(F)F)ccc12 [I-200] |  | at least 50% | at least 50% | 
24 | CCNc1nc(-c2ccc(C(F)(F)F)cc2C(F)(F)F)nc2cc(C(F)(F)F)ccc12 [I-211] |  |  |  | mortality in comparison with untreated controls [5]: at least 50%; mortality [3]: at least 50%
25 | CCNc1nc(-c2ccc(C(F)(F)F)cc2F)nc2cc(C(F)(F)F)ccc12 [I-212] |  | at least 50% |  | mortality in comparison with untreated controls [5]: at least 50%
26 | CCNc1nc(-c2ccc(C(F)(F)F)cc2Cl)nc2cc(C(F)(F)F)ccc12 [I-213] | at least 50% |  |  | mortality in comparison with untreated controls [5]: at least 50%
27 | CCNc1nc(-c2ccc(NC(=O)C(F)(F)F)cc2)nc2cc(C(F)(F)F)ccc12 [I-216] |  | at least 50% |  | 

Row | SMILES | mortality [1] | mortality [2] | mortality in comparison with untreated controls [4] | further results
28 | CCCNc1nc(-c2ccc(Br)cn2)nc2cc(C(F)(F)F)ccc12 [I-237] | at least 50% | at least 50% |  | 
29 | CCNc1nc(-c2ccc(F)cc2Cl)nc2cc(C(F)(F)F)ccc12 [I-238] |  | at least 50% |  | mortality in comparison with untreated controls [5]: at least 50%
30 | CCCNc1nc(-c2ccc(Cl)c(C(F)(F)F)c2)nc2cc(C(F)(F)F)ccc12 [I-256] |  | at least 50% |  | 
31 | CCNc1nc(-c2cc(Cl)c(Cl)cc2C(F)(F)F)nc2cc(C(F)(F)F)ccc12 [I-257] | at least 50% | at least 50% |  | 
32 | CCCNc1nc(-c2ccc(-c3nnc(C)o3)cc2)nc2cc(C(F)(F)F)ccc12 [I-276] | at least 50% |  |  | 
33 | CCCNc1nc(-c2ccc(S(C)(=O)=O)cc2)nc2cc(C(F)(F)F)ccc12 [I-277] |  |  |  | mortality [3]: at least 50%
34 | CCCNc1nc(-c2ccc(C(=O)NC)cc2)nc2cc(C(F)(F)F)ccc12 [I-281] |  |  |  | mortality [3]: at least 50%
35 | CCCNC(=O)c1ccc(-c2nc(NCCC)c3ccc(C(F)(F)F)cc3n2)cc1 [I-287] |  | at least 50% |  | 
36 | CCCNc1nc(-c2ccc(Oc3ccc(OC)cc3)cc2)nc2cc(C(F)(F)F)ccc12 [I-299] |  |  | at least 50% | mortality in comparison with untreated controls [5]: at least 50%
37 | CCCNc1nc(-c2ccc(Oc3cccc(OC)c3)cc2)nc2cc(C(F)(F)F)ccc12 [I-300] |  |  | at least 50% | mortality in comparison with untreated controls [5]: at least 50%
38 | CCCNc1nc(-c2ccc(Oc3ccccc3OC)cc2)nc2cc(C(F)(F)F)ccc12 [I-301] |  |  | at least 50% | mortality in comparison with untreated controls [5]: at least 50%
39 | CCCNc1nc(-c2ccc(Oc3cccc(C(F)(F)F)c3)cc2)nc2cc(C(F)(F)F)ccc12 [I-302] |  |  | at least 50% | mortality in comparison with untreated controls [5]: at least 50%
40 | CCCNc1nc(-c2ccc(Oc3cccc(OC(F)(F)F)c3)cc2)nc2cc(C(F)(F)F)ccc12 [I-303] |  |  | at least 50% | mortality in comparison with untreated controls [5]: at least 50%
41 | CCCNc1nc(-c2ccc(Oc3ccc(OC(F)(F)F)cc3)cc2)nc2cc(C(F)(F)F)ccc12 [I-304] |  |  | at least 50% | mortality in comparison with untreated controls [5]: at least 50%
42 | CCCNc1nc(-c2ccc(Nc3ccccc3)cc2)nc2cc(C(F)(F)F)ccc12 [I-306] |  |  | at least 50% | mortality in comparison with untreated controls [5]: at least 50%
43 | CCCNc1nc(-c2ccc(-c3csc(C)n3)cc2)nc2cc(C(F)(F)F)ccc12 [I-307] |  |  | at least 50% | mortality in comparison with untreated controls [5]: at least 50%
44 | CCCNc1nc(-c2ccc(/C(=N\O)NCC)cc2)nc2cc(C(F)(F)F)ccc12 [I-329] |  | at least 50% | at least 50% | 
45 | CCCNc1nc(-c2ccccc2)nc2cc(C(F)(F)F)ccc12 [I-336] |  |  |  | mortality [3]: at least 50%
46 | CC(C)(C)OC(=O)CNc1nc(-c2ccc(Br)cc2)nc2cc(C(F)(F)F)ccc12 [I-405] |  | at least 50% |  | 
47 | CCCNc1nc(-c2ccc(Cl)cc2F)nc2c(Cl)c(C(F)(F)F)ccc12 [I-409] | at least 50% | at least 50% |  | 
48 | N=C(Nc1nc(-c2ccc(Br)cc2)nc2cc(C(F)(F)F)ccc12)C1CC1 [I-417] | at least 50% |  | at least 50% | 
49 | CC(C)(C)CNc1nc(-c2ccc(Br)cc2)nc2cc(C(F)(F)F)ccc12 [I-428] |  |  |  | mortality [3]: at least 50%
50 | CN(C)c1nc(-c2ccc(F)cc2)nc2cc(C(F)(F)F)ccc12 [I-433] |  | at least 50% | at least 50% | 
51 | CCCNc1nc(-c2ccc(F)c(Cl)c2)nc2c(Cl)c(C(F)(F)F)ccc12 [I-437] | at least 50% | at least 50% |  | 
52 | CCC(CC)CNc1nc(-c2ccc(Br)cc2)nc2cc(C(F)(F)F)ccc12 [I-439] |  | at least 50% |  | 
53 | N=C(Nc1nc(-c2ccc(Br)cc2)nc2cc(C(F)(F)F)ccc12)c1ccccc1 [I-441] | at least 50% |  |  | 

Source: patent US8796180B2, “Aminoquinazoline compounds for combating invertebrate pests” (BASF SE, priority 2009, dated 2014)
